Record: PubChem BioAssay AID1259425 (University of Nebraska Medical Center, 2018)

Test: 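Compare each knockdown with KSR1 silencing using changes in marker transcripts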 (primary screen)
System: HCT116 human colon cancer cells
Knock-down reagent: siRNA pool against human genes, 50 nM siRNA
Measured: 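mRNA of six signature genes measured together by branched-DNA assay after 50 nM siRNA pool, blank removed, divided by geometric mean of two housekeeping genes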
Direction: BNIP3L mRNA: higher = more BNIP3L transcript after knockdown
Shown is an unselected part of about 14,000 deposited reagents. Further read-outs or replicates are left out here. Reagent sequences are not shown. Not stated in the record: the time to read-out.

SLIT3 (slit guidance ligand 3) → BNIP3L mRNA, set 1 = 0.0382
FOXN1 (forkhead box N1) → BNIP3L mRNA, set 1 = 0.0837
RGS18 (regulator of G protein signaling 18) → BNIP3L mRNA, set 1 = 0.059
MAP3K19 (mitogen-activated protein kinase kinase kinase 19) → BNIP3L mRNA, set 1 = 0.164
NEK7 (NIMA related kinase 7) → BNIP3L mRNA, set 1 = 0.0501
DDIT4 (DNA damage inducible transcript 4) → BNIP3L mRNA, set 1 = 0.0742
RBM12 (RNA binding motif protein 12) → BNIP3L mRNA, set 1 = 0.117
S100G (S100 calcium binding protein G) → BNIP3L mRNA, set 1 = 0.0823
CAMK1 (calcium/calmodulin dependent protein kinase I) → BNIP3L mRNA, set 1 = 0.24
IGFBP2 (insulin like growth factor binding protein 2) → BNIP3L mRNA, set 1 = 0.0781
UBP1 (upstream binding protein 1) → BNIP3L mRNA, set 1 = 0.0955
TP53BP1 (tumor protein p53 binding protein 1) → BNIP3L mRNA, set 1 = 0.0732
MLLT10 (MLLT10 histone lysine methyltransferase DOT1L cofactor) → BNIP3L mRNA, set 1 = 0.0881
SH3TC1 (SH3 domain and tetratricopeptide repeats 1) → BNIP3L mRNA, set 1 = 0.159
GPM6A (glycoprotein M6A) → BNIP3L mRNA, set 1 = 0.0912
QPCTL (glutaminyl-peptide cyclotransferase like) → BNIP3L mRNA, set 1 = 0.0733
KMT2D (lysine methyltransferase 2D) → BNIP3L mRNA, set 1 = 0.0666
SLC6A9 → BNIP3L mRNA, set 1 = 0.0978
KCNAB2 → BNIP3L mRNA, set 1 = 0.0795

A few values from the entries so far.
Under “BNIP3L mRNA, set 1”, RBM12 (RNA binding motif protein 12) has 0.117
For “BNIP3L mRNA, set 1”, CAMK1 (calcium/calmodulin dependent protein kinase I) reads 0.24
Under “BNIP3L mRNA, set 1”, UBP1 (upstream binding protein 1) shows 0.0955
